Measurements reported in PubChem BioAssay AID1671195 (Yale University, 2021)
Shown is one part, drawn at random, of about 22,000 reagents. In the full data, about 1,510 (6.9%) are marked active. 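Active includes knockdowns raising or lowering LDL uptake; positive z-scores mean more uptake, negative mean less.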 Entries without a mark were called inactive.

Assay: 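Genes whose knockdown alters LDL uptake in liver cancer cells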 (primary screen)
Cell system: human Huh7 hepatoma cells
Knock-down reagent: siRNA pool against human genes, 18 nM
Timing: about 2 to 2.5 days of knockdown, then 8 h LDL uptake
Conditions: DiI-labelled LDL at 30 µg/ml for 8 h, in lipoprotein-deficient serum medium
Read-out: 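Fluorescent LDL signal imaged in cells, scaled to the plate median, robust z-score for each replicate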
Reading the numbers: robust z-score: higher = more LDL uptake after knockdown
Call rule: 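a gene counts as active if at least two replicate z-scores exceed ±2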

gene symbol | PubChem SID | robust z-score, replicate 1 | robust z-score, replicate 2 | robust z-score, replicate 3
RAD23BP1 (RAD23B pseudogene 1) | SID442899405 | -0.851 | -0.563 | -0.435
TRAM1 (translocation associated membrane protein 1) | SID442904445 | -2.34 | -1.36 | -1.23
ALKBH8 (alkB homolog 8, tRNA methyltransferase) | SID442890868 | 0.428 | 0.415 | 0.238
FBXL22 (F-box and leucine rich repeat protein 22) | SID442887583 | 1.04 | 1.01 | 0.604
CARF (calcium responsive transcription factor) | SID442899163 | -0.866 | -0.812 | -0.0793
SEPTIN11 (septin 11) | SID442901604 | -1.06 | -0.98 | -0.734
OR51G2 (olfactory receptor family 51 subfamily G member 2) | SID442887101 | 0.745 | 0.65 | 1.57
LILRB3 (leukocyte immunoglobulin like receptor B3) | SID442888578 | 1 | 0.798 | 0.286
SH2D4B (SH2 domain containing 4B) | SID442904609 | -1.79 | -1.69 | -1.77
BTN2A1 (butyrophilin subfamily 2 member A1) | SID442903938 | -1.26 | -1.49 | -1.57
TP53TG3 (TP53 target 3) | SID442898046 | -1.03 | 0.138 | -0.477
HSD17B6 (hydroxysteroid 17-beta dehydrogenase 6) | SID442884156 | 1.98 (active) | 2.36 | 1.26
RAP1GAP (RAP1 GTPase activating protein) | SID442888691 | 0.683 | 0.0791 | 1.27
RIPPLY3 (ripply transcriptional repressor 3) | SID442897870 | -0.162 | -0.958 | -0.182
ORAI1 (ORAI calcium release-activated calcium modulator 1) | SID442902014 | -0.914 | -0.935 | -1.15
IL31 (interleukin 31) | SID442894331 | -0.0144 | 0.115 | -0.256
BHLHE22-AS1 (BHLHE22 antisense RNA 1) | SID442886177 | 1.38 | 1.31 | 1.04
NCOA3 (nuclear receptor coactivator 3) | SID442885126 | 1.61 | 0.918 | 2.48
NEU1 (neuraminidase 1) | SID442886988 | 1.04 | 0.677 | 1.32
EFR3A (EFR3 homolog A) | SID442886395 | 2.08 | 0.667 | 0.778
TXLNGY (taxilin gamma Y-linked (pseudogene)) | SID442899823 | -0.222 | -1.08 | -0.715
TXLNGY (taxilin gamma Y-linked (pseudogene)) | SID442904269 | -1.53 | -1.8 | -1.32
CALCB (calcitonin related polypeptide beta) | SID442894746 | 0.0249 | 0.216 | -0.532
LINC02381 (long independently transcribed non-coding RNA 2381) | SID442895353 | 0.208 | -0.515 | -0.179
IGSF10 (immunoglobulin superfamily member 10) | SID442902918 | -0.877 | -1.01 | -1.64
MAGEF1 (MAGE family member F1) | SID442896823 | -0.741 | -0.0221 | -0.187
KIAA0319L (KIAA0319 like) | SID442894812 | -0.00787 | -0.12 | -0.18
CEBPZ (CCAAT enhancer binding protein zeta) | SID442898761 | -0.519 | -0.61 | -0.475
OLFML2A (olfactomedin like 2A) | SID442889468 | 0.625 | 0.337 | 0.697
CMTM5 (CKLF like MARVEL transmembrane domain containing 5) | SID442883352 | 2.73 (active) | 3.46 | 3.32
KRTAP9-3 (keratin associated protein 9-3) | SID442893264 | -0.116 | 0.182 | 0.144
SMARCD2 (SWI/SNF related BAF chromatin remodeling complex subunit D2) | SID442894278 | -0.477 | 0.368 | -0.0269
SLC7A5 | SID442887926 | 0.619 | 0.701 | 1.13
NGRN (neugrin, neurite outgrowth associated) | SID442887923 | 0.615 | 1.31 | 0.524
NGRN (neugrin, neurite outgrowth associated) | SID442892159 | 0.104 | -0.145 | 0.645
RIMKLA (ribosomal modification protein rimK like family member A) | SID442884148 | 2 (active) | 2.31 | 1.34
PSME1 (proteasome activator subunit 1) | SID442901357 | -0.525 | -0.602 | -1.54
ADRM1 (ADRM1 26S proteasome ubiquitin receptor) | SID442888351 | 0.926 | 0.691 | 0.588
HOXC13 (homeobox C13) | SID442885097 | 2.81 | 0.886 | 1.35
DEFB108B (defensin beta 108B) | SID442885085 | 1.81 | 1.56 | 1.7
CHTOP (chromatin target of PRMT1) | SID442888793 | -0.615 | 0.845 | 1.75
CNOT6 (CCR4-NOT transcription complex subunit 6) | SID442886188 | 1.26 | 1.07 | 1.38
KY (kyphoscoliosis peptidase) | SID442895894 | -0.27 | -0.198 | -0.184

Continued, starting with the last 8 of the part before.
gene symbol | PubChem SID | robust z-score, replicate 1 | robust z-score, replicate 2 | robust z-score, replicate 3
RIMKLA (ribosomal modification protein rimK like family member A) | SID442884148 | 2 (active) | 2.31 | 1.34
PSME1 (proteasome activator subunit 1) | SID442901357 | -0.525 | -0.602 | -1.54
ADRM1 (ADRM1 26S proteasome ubiquitin receptor) | SID442888351 | 0.926 | 0.691 | 0.588
HOXC13 (homeobox C13) | SID442885097 | 2.81 | 0.886 | 1.35
DEFB108B (defensin beta 108B) | SID442885085 | 1.81 | 1.56 | 1.7
CHTOP (chromatin target of PRMT1) | SID442888793 | -0.615 | 0.845 | 1.75
CNOT6 (CCR4-NOT transcription complex subunit 6) | SID442886188 | 1.26 | 1.07 | 1.38
KY (kyphoscoliosis peptidase) | SID442895894 | -0.27 | -0.198 | -0.184
SLIT3 (slit guidance ligand 3) | SID442884987 | 3.04 | 1.54 | 0.64
AMD1 (adenosylmethionine decarboxylase 1) | SID442884233 | 2.02 (active) | 0.298 | 1.91
LDAF1 (lipid droplet assembly factor 1) | SID442893156 | 0.464 | 0.468 | -0.684
TAGAP (T cell activation RhoGTPase activating protein) | SID442898691 | -0.807 | -0.263 | -0.51
DRG1 (developmentally regulated GTP binding protein 1) | SID442903869 | -1.51 | -1.52 | -1.23
VPS39 (VPS39 subunit of HOPS complex) | SID442902263 | -0.795 | -1.72 | -0.605
GARNL3 (GTPase activating Rap/RanGAP domain like 3) | SID442893014 | 0.945 | 0.109 | -0.765
KIAA1549L (KIAA1549 like) | SID442891178 | 1.09 | 0.152 | -0.277
KIAA1549L (KIAA1549 like) | SID442892887 | -0.313 | 0.69 | -0.035
LOC387872 (retired record) | SID442894036 | 0.648 | -0.437 | -0.269
PSME2 (proteasome activator subunit 2) | SID442898162 | 0.0121 | -0.21 | -1.21
DEDD (death effector domain containing) | SID442896398 | -0.144 | -0.00641 | -0.653
OR10X1 (olfactory receptor family 10 subfamily X member 1) | SID442901538 | -1.05 | -1.26 | -0.433
LOC387690 (retired record) | SID442903350 | -1.41 | -1.11 | -1.32
GNL2 (G protein nucleolar 2) | SID442892474 | 1.72 | -1.04 | -0.191
DNM1DN11-7 (DNM1DN11.7 duplicon) | SID442895308 | 0.194 | -0.425 | -0.239
NMNAT2 (nicotinamide nucleotide adenylyltransferase 2) | SID442903888 | -1.65 | -1.39 | -1.23
TNP1 (transition protein 1) | SID442887432 | 0.311 | 1.47 | 0.959
UGT1A4 (UDP glucuronosyltransferase family 1 member A4) | SID442897965 | -0.651 | -0.63 | -0.0529
C10orf90 (chromosome 10 open reading frame 90) | SID442890878 | 0.133 | 0.401 | 0.545
IL2RA (interleukin 2 receptor subunit alpha) | SID442904564 | -1.54 | -2.23 | -1.38
UBE2Z (ubiquitin conjugating enzyme E2 Z) | SID442891395 | 0.428 | -0.0078 | 0.455
MIPEP (mitochondrial intermediate peptidase) | SID442889338 | 0.947 | 0.363 | 0.415
LMO7 (LIM domain 7) | SID442900533 | -0.916 | -0.313 | -1.09
CXXC5 (CXXC finger protein 5) | SID442901819 | -0.818 | -1.68 | -0.396
